The values that follow come from PubChem BioAssay AID2685 (National Center for Advancing Translational Sciences (NCATS), 2010).

A short description of the assay: qHTS Assay for Lipid Storage Modulators in Drosophila S3 Cells.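 As to cell number change: cells counted by Cell Tracker Red CMTPX staining in the red channel.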 Conditions: BODIPY lipid droplet fluorescence, 18-24 h; for cell number change: measured here: cell count max response, cells fed with added oleic acid. The essentials: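 Laser-scanning cytometry quantifies lipid droplet accumulation (500–530 nm total intensity; droplet/cell object ratio) in oleic acid-fed (400 uM added) Drosophila S3 cells treated with a concentration series. 20 uM Triacsin C defined 100% inhibition.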
Background: Quantitative high-throughput screening tests each substance at several concentrations.

[1] abbreviates: measured here: cell number channel AC50, cells fed with added oleic acid.
Setting [2] is: measured here: lipid fluorescence (Fed channel) AC50, cells fed with added oleic acid.

The other results are listed elsewhere or left out. Further columns of the screen follow, without active or inactive calls. The list favours compounds with an active or inconclusive main result. The note in brackets gives the kind of curve behind each potency; many fits are weak.

Broadly, the AC50 is the concentration at which the activity in the assay is half-maximal. Low readings indicate greater potency, high ones weaker potency. As for `O=C(N/N=C/c1ccc(N2CCOCC2)cc1)C1COc2ccccc2O1` (stereo not given), the cell number change is -62.7%. For the same molecule, the AC50 under setting [1] was 32.6 µM [falling, partial curve, poor fit].

Regarding `COc1ccc(C2SCC(=O)N2c2c(C)n(C)n(-c3ccccc3)c2=O)cc1` (stereo not given), the cell number change was 51.3%. Further, the AC50 under setting [1] was 5.8 µM [rising, full curve, poor fit]. Besides, the AC50 under setting [2] is 29.1 µM [rising, single point].

With `COc1ccc(/C=C(\NC(=O)c2ccc([N+](=O)[O-])cc2)C(=O)NCCCn2ccnc2)cc1`, the cell number change came out at 7.5%. In addition, the AC50 under setting [2] is 1.16 µM [falling, single point].

Regarding `Cc1ccccc1C(=O)Nc1cccc(C(=O)Nc2ccccc2C(=O)O)c1`, the cell number change is -4.5%. For the same molecule, the AC50 under setting [2] was 29.1 µM [rising, single point]. As for `NC(=O)c1ccc(/C(N)=N/S(=O)(=O)c2cc(C(F)(F)F)cc(C(F)(F)F)c2)cc1`, the cell number change came out at 21.2%. For the molecule `Cc1cc(S(=O)(=O)N2CCOCC2)ccc1OCC(=O)NCc1ccccn1`, the cell number change was found to be 12.1%. Also, under setting [2], the AC50 was 0.13 µM [falling, full curve]. For `O=C(CNC(=O)c1ccc(S(=O)(=O)N2CCCC2)cc1)N/N=C/c1ccc(Cl)cc1Cl`, the cell number change stood at 22.7%. Also, the AC50 under setting [2] is 3.66 µM [rising, single point]. Consider `CN(C)c1nnnn1-c1cccc(Oc2ncc(C(F)(F)F)cc2Cl)c1`, for which the cell number change was 16.1%. For the molecule `O=C(Nc1ccccc1C(=O)NCCN1CCOCC1)c1cccc([N+](=O)[O-])c1`, the cell number change was -17.4%. Moreover, the AC50 under setting [1] is 3.16 µM [falling, single point]. Besides, the AC50 under setting [2] is 35.5 µM [falling, single point]. Take `COc1ccc(-c2csc(NC(=O)CS(=O)(=O)c3ccc(F)cc3)n2)cc1OC`: the cell number change came to 97%. The AC50 under setting [1] is 9.2 µM [rising, partial curve]. In the case of `Cc1sc(NC(=O)c2ccco2)c(CN2CCN(Cc3ccccc3)CC2)c1C`, the AC50 under setting [2] was 29.1 µM [falling, single point].

Turning to `CCC(CC)C(=O)Nc1cccc(C(=O)Nc2nccs2)c1`, the cell number change turned out to be 9.26%. As for `CC(=O)Oc1ccc(C(=O)Nc2ccccc2C(=O)Nc2cccc(C(=O)O)c2)cc1`, the cell number change was -1.1%. The AC50 under setting [2] was 29.1 µM [rising, single point].

As for `CN(C)c1nc(N/N=C/c2c[nH]c3ccccc23)nc(N2CCOCC2)n1`, the cell number change is 15.3%. `C=CCc1c(Cl)nc(C)nc1NCc1ccccc1`: under setting [2], the AC50 is 6.51 µM [rising, single point]. Still for that read-out and setting: with `Cc1ccc(/C=C/C(=O)NCCc2c[nH]c3ccccc23)o1` the figure was 0.731 µM [falling, single point]. With `NS(=O)(=O)c1ccc(NC(=O)CSc2ccc3ccccc3n2)cc1`, the AC50 reads like this: under setting [1], 2.06 µM [rising, partial curve, poor fit]; under setting [2], 16.4 µM [falling, single point].

For `N#Cc1ccc(NC(=S)NC(=O)CCc2ccc(S(=O)(=O)N3CCOCC3)cc2)cc1`, the cell number change was 19%. The AC50 under setting [2] is 2.31 µM [falling, single point].

Turning to `O=Cc1c[nH]c2ccc(S(=O)(=O)N3CCOCC3)cc12`, the cell number change is 2.52%. Besides, the AC50 under setting [2] was 0.116 µM [rising, full curve, poor fit]. Regarding `CCN(CC)S(=O)(=O)c1ccc(=O)[nH]c1`, the cell number change was -39.8%. Moreover, the AC50 under setting [1] is 0.326 µM [falling, full curve]. Further, under setting [2], the AC50 is 0.651 µM [falling, full curve].

On to `CCNC(=S)NN=C1CCC(C(C)(C)C)CC1` (stereo not given), for which the cell number change was -125%. Moreover, the AC50 under setting [1] is 20.6 µM [falling, single point]. As to `CCOc1cc(NC(=S)NCC2CCCO2)c(OCC)cc1NC(=O)c1cccc(F)c1` (stereo not given), the AC50 reads like this: under setting [1], 0.184 µM [falling, full curve, poor fit]; under setting [2], 0.164 µM [falling, full curve, poor fit].

On to `O=C(CO/N=C/c1cccc([N+](=O)[O-])c1)Nc1ccc2ccccc2c1`, for which the cell number change was 44%. Further, under setting [1], the AC50 was 11.6 µM [rising, partial curve, poor fit].

Regarding `O=C(Nc1ccc(F)c([N+](=O)[O-])c1)C1CC(=O)N(Cc2ccccc2)C1` (stereo not given), the cell number change is -4.53%.

For `O=C(CNC(=O)C1CC(=O)N(c2cccc3ccccc23)C1)Nc1ccccc1Br` (stereo not given), the cell number change was -1.2%.

Consider `COc1cccc(C(=O)COc2ccc(NC(=O)c3ccccc3)cc2)c1`, for which the cell number change was -22.4%. Under setting [2], the AC50 is 2.91 µM [falling, partial curve]. Turning to `COc1ccc(O)c(C(=O)c2cc(C(=O)NCCc3ccccc3)c(=O)n(CCc3ccccc3)c2)c1`, the AC50 under setting [1] is 0.411 µM [falling, full curve, poor fit].

Take `COC(=O)c1ccc(C2=NOC(C)(c3sc(-c4ccccc4)nc3C)C2)cc1` (stereo not given): the cell number change stood at 18.5%. Besides, under setting [2], the AC50 was 11.6 µM [rising, partial curve].

For the molecule `COc1ccc(S(=O)(=O)N2CCNCC2)cc1`, the cell number change was -9.47%.

For `CCN1CCN(C(=O)CN2C(=O)COc3ccc(C)cc32)CC1`, the cell number change was 12.8%. Also, the AC50 under setting [2] was 5.17 µM [falling, single point]. On to `COc1cc(-c2nc(N)n[nH]2)cc(OC)c1OC`, for which the cell number change was 28%. The same measure, in the same setting: with `Cc1ccc(-c2ccc(/C=N/NC(=O)CN3CCOCC3)o2)cc1[N+](=O)[O-]` the figure was -0.993%.

Regarding `Cc1csc(NC(=O)CSc2nc(=O)[nH]c3c2CCCC3)n1`, the cell number change was -30.1%. Under setting [1], the AC50 was 14.6 µM [falling, partial curve, poor fit].

On to `CCCCCn1c(=O)[nH]c2cc(C(=O)O)ccc2c1=O`, for which the cell number change is -192%. For the same molecule, the AC50 under setting [1] is 2.06 µM [falling, partial curve]. Moreover, the AC50 under setting [2] was 29.1 µM [falling, single point].

Turning to `CC(C)N=C(N)N=C(N)Nc1ccc(Cl)cc1`, the cell number change turned out to be 36.2%. Also, the AC50 under setting [1] was 13 µM [rising, partial curve, poor fit]. Further, the AC50 under setting [2] was 11.6 µM [rising, partial curve].

Turning to `COc1cc2c(C)nc(C)c(C#N)c2cc1OC`, under setting [1], the AC50 is 6.51 µM [rising, single point]. For `CC(=O)Nc1ccc(-n2nnnc2SCC(=O)NCc2cccs2)cc1`, the cell number change stood at 3.7%. The AC50 under setting [1] is 0.00461 µM [rising, full curve, poor fit]. On to `Cc1ccc(S(=O)(=O)N2Cc3ccccc3CC2C(=O)Nc2ccc3c(c2)OCO3)cc1` (stereo not given), for which the cell number change amounted to 60.7%. Further, the concentration at half-maximal activity (AC50) under setting [1] was 5.17 µM [rising, full curve]. Further, the AC50 under setting [2] is 3.26 µM [falling, single point]. As for `CSc1ccccc1-c1nnc(NC(=O)Cc2ccccc2)o1`, the cell number change is 9.88%. Besides, the AC50 under setting [2] was 6.51 µM [rising, single point]. On to `Cc1ccc(C(CCN)c2ccco2)cc1` (stereo not given), for which the cell number change was determined as 0.156%. Further, the AC50 under setting [2] was 0.184 µM [falling, full curve]. Turning to `COc1ccc(/C=N/NC(=O)CN(C2=NS(=O)(=O)c3ccccc32)c2ccccc2)cc1`, the cell number change is -49.8%. For the same molecule, the concentration at half-maximal activity (AC50) under setting [1] was 13 µM [falling, partial curve]. Also, under setting [2], the AC50 was 0.461 µM [falling, full curve, poor fit].

For the molecule `O=C(CSc1nccn1-c1cccc(Cl)c1)NC1CCCC1`, the cell number change is -20.5%. For the same molecule, the AC50 under setting [2] was 29.1 µM [rising, single point]. In the case of `O=C(NCCO)C(F)(F)C(F)(F)C(F)(F)OC(F)(C(=O)NCCO)C(F)(F)F` (stereo not given), the cell number change was 1.19%. The AC50 under setting [2] was 29.1 µM [rising, single point]. Turning to `COc1ccc(S(=O)(=O)N2CCOCC2)cc1C(=O)Nc1ccon1`, under setting [2], the AC50 was 29.1 µM [falling, single point]. As to `COCCn1c(C)cc(C(=O)COC(=O)c2ccc([N+](=O)[O-])o2)c1C`, the cell number change is -3.83%. `COC(=O)C(NC(C)=O)(Nc1nc2c(s1)CCCC2)C(F)(F)F` (stereo not given): the cell number change amounted to 0.571%. Further, the half-maximal activity concentration (AC50) under setting [2] is 6.51 µM [falling, partial curve]. Consider `COc1ccccc1C(=O)NC(=O)COC(=O)c1ncc(Cl)c(Cl)c1Cl`, for which the cell number change is -43.7%. For the same molecule, under setting [1], the AC50 is 29.1 µM [falling, single point]. `CC(C)N(C(=O)COC(=O)c1ccc(Cl)nc1)C(C)C`: the cell number change is -27.2%. The AC50 under setting [2] is 1.46 µM [falling, full curve]. In the case of `Cc1ccc(-c2nn3c(C)nnc3c3ccccc23)cc1S(=O)(=O)NCc1ccco1`, the cell number change was -23.5%. For the same molecule, the AC50 under setting [1] was 0.00411 µM [falling, full curve, poor fit].

Take `Clc1cccc(-c2ccnc3nc(-n4cccc4)nn23)c1`: the cell number change was -46.3%. The AC50 under setting [2] is 0.206 µM [rising, full curve, poor fit]. For the molecule `COc1ccccc1N(CC(=O)Nc1ccccc1C(=O)N1CCCC1)S(C)(=O)=O`, the AC50 under setting [2] was 16.4 µM [falling, partial curve]. For the molecule `CCC(Cc1ccccc1)NC(=O)c1cc(S(=O)(=O)N2CCCCC2)c[nH]1` (stereo not given), the cell number change stood at 12.3%. Further, the AC50 under setting [2] was 18.4 µM [falling, single point]. In the case of `Cc1ccccc1C(=O)c1cccn1CC(=O)N1CCCCC1`, the cell number change is -2.31%. Under setting [1], the AC50 was 0.651 µM [rising, full curve, poor fit]. Turning to `Cc1cccc2cc(C#N)c(SCc3nnc(-c4ccccc4[N+](=O)[O-])o3)nc12`, the cell number change worked out at 9.56%. Besides, the AC50 under setting [2] was 0.291 µM [rising, full curve, poor fit].

For the molecule `Cc1cc(C)cc(C(=O)N2CC(=O)Nc3ccccc32)c1`, the cell number change was determined as 19.6%. As to `CCN(CC)S(=O)(=O)c1ccc(N(C)Cc2cccnc2)nc1`, the AC50 was 4.61 µM [rising, partial curve] under setting [1] and 29.1 µM [rising, single point] under setting [2]. With `Cc1c(C(=O)OCC(=O)c2c(N)n(CC(C)C)c(=O)n(C)c2=O)oc2ccccc12`, the cell number change was -24.5%. Also, the concentration at half-maximal activity (AC50) under setting [2] is 23.1 µM [falling, single point]. Regarding `Oc1ccccc1CNc1nc2ccccc2n1CCN1CCCCC1`, under setting [2], the concentration at half-maximal activity (AC50) is 16.4 µM [rising, partial curve].

Take `Nn1c(SCC(=O)NC(=O)NCc2ccco2)nnc1-c1ccc(OC(F)F)cc1`: the cell number change was -1.24%. Besides, the AC50 under setting [2] was 1.64 µM [falling, partial curve]. `N#CC1C(=O)NC(N2CCN(c3ccccc3)CC2)=NC12CCCCC2` (stereo not given): the cell number change was -4.63%.

As for `O=C(COC(=O)Cc1ccsc1)Nc1ccccc1`, the cell number change was -8.82%. In addition, the half-maximal activity concentration (AC50) under setting [1] was 1.16 µM [falling, partial curve, poor fit]. For the same molecule, the AC50 under setting [2] was 1.46 µM [falling, partial curve, poor fit].
